Results are given in words; binding and its absence hold for the method and conditions named. Some binding calls cover weakened binding; strength is not graded here.
Columns and labels:
[1] = molecular target: BSA (UniProt P02769); experiment: ELISA; VEGFR2 or BSA coated on a high-binding 96-well plate at 20 µg/ml in carbonate buffer overnight at 4°C, blocked with 1% BSA; Hsp20 at 1.2, 2.4 and 4.8 µg/ml in PBS, 2 h at room temperature; detected by anti-Hsp20 antibody and HRP secondary, read at 450 nm; both purified
[2] = molecular target: purified VEGFR2 protein (UniProt P35968); experiment: as above

Amino acid sequences for entries named in this document (tags omitted). Residues count along the entry.
UniProt P02769, residues 25-607: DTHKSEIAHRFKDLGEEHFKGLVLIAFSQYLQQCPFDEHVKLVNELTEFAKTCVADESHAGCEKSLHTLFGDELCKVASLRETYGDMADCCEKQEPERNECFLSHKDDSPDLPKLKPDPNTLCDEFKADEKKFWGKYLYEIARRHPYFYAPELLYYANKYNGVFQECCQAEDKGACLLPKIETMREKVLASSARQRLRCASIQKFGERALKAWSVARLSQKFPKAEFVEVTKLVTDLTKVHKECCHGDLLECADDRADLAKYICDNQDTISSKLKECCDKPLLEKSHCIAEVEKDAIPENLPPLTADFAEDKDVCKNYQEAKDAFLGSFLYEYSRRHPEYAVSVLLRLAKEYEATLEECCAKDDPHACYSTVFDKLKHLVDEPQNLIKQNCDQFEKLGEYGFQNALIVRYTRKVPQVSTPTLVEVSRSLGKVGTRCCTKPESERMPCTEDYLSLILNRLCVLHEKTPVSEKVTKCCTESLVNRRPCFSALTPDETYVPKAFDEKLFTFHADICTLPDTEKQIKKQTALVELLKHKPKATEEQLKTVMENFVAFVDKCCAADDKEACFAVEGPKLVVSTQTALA
UniProt P35968, residues 20-764: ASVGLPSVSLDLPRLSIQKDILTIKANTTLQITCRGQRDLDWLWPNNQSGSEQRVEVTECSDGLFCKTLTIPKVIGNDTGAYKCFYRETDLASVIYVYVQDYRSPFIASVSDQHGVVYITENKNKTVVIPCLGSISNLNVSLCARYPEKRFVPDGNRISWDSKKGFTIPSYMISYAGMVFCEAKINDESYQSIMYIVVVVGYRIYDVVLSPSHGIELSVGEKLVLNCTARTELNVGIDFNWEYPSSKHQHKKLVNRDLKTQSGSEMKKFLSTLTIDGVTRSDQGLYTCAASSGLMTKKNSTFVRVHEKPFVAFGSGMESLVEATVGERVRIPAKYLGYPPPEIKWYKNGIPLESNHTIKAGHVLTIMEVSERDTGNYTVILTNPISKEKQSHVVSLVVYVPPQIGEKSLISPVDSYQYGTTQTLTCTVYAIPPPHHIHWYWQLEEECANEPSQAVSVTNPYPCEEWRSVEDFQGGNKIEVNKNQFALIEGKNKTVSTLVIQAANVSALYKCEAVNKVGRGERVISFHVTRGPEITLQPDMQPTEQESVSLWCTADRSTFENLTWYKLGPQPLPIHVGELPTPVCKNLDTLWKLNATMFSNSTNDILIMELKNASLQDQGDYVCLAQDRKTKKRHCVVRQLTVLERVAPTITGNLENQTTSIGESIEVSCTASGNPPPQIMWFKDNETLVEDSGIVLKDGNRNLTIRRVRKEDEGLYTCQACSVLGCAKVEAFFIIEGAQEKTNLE

B1: recombinant human Hsp20 protein (protein, UniProt O14558 1-160)
chain: MEIPVPVQPSWLRRASAPLPGLSAPGRLFDQRFGEGLLEAELAALCPTTLAPYYLRAPSVALPVAQVPTDPGHFSVLLDVKHFSPEEIAVKVVGEHVEVHARHEERPDEHGFVAREFHRRYRLPPGVDPAAVTSALSPEGVLSIQAAPASAQAPPPAAAK
binding [1]: no binding (tested: 4.8 µg/ml) | binding [2]: binds

Source: publication PMC3299679
